Here are results for two molecules from patent US20240409648A1.

For the test, the target named is T1, recombinantly produced human IL-36R (ECD-extracellular domain: amino acids 20-332 of Genbank Accession #NP_003845) (human) (UniProt Q9HB29).
T1 sequence (looked up): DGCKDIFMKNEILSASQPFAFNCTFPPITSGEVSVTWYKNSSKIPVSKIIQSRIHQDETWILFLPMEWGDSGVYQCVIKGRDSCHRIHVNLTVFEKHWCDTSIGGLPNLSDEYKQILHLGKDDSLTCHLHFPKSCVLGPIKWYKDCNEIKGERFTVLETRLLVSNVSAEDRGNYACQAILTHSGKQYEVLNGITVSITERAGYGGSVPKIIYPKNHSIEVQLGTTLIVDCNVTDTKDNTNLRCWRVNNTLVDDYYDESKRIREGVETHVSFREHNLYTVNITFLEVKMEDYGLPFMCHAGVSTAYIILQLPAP
The experiment in a line: BLI (Fortebio Octet) selectivity test; also in 50% human serum. In general terms: Biolayer interferometry detects binding as a change in optical thickness at a sensor tip.

Results are given in words; binding and its absence hold for the method and conditions named. Some results given as binding are weak or reduced against the parent protein; the word gives no strength.

B1: antibody 172C8 (antibody, V domains shown)
VH: EVQLQQSGPELVKPGASVKLSCKASGYTFTDNYMNWVRQSHGKSLEWIGRVNPSNGDTKYNQNFKGKATLTVDKSLSTAYMQLNGLTSEDSAVYYCGRTKNFYSSYSYDDAMDYWGQGTSVTVSS
VL: DIQMTQSPASQSASLGESVTFTCLASQTIGTWLAWYQQRPGKSPQLLIYAATSLADGVPSRFSGSGSGTQFSFNIRSLQAEDFASYYCQQVYTTPLTFGGGTKLEIK
For the molecule B1, the binding result is “binds”.

B2: antibody 67E7 (antibody, V domains shown)
VH: EVQLQQSGAEFVRPGASVKFSCTASGFNIKDDYIHWVRQRPEQGLEWVGRIDPANGNTKYAPKFQDKATITADTSSNTAYLQLSSLTSEDTAVYYCAKSFPNNYYSYDDAFAYWGQGTLVTVSA
VL: DIQMTQSPASQSASLGESVTFTCLASQTIGTWLGWYQQKPGKSPQLLIYRSTTLADGVPSRFSGSGSGTKFSFKISSLQAADFASYYCQQLYSAPYTFGGGTKLEIR
For the molecule B2, the binding entry is listed as “binds”.
